In paper PMC6902028, “Elucidating the Immune Evasion Mechanisms of Borrelia mayonii, the Causative Agent of Lyme Disease” (Frontiers in Immunology, 2019):
Results are given in words; binding and its absence hold for the method and conditions named. A result given as binding can be weak or reduced; the word gives no strength. For some assays here: In cells and extracts the contact can be indirect.

Chains of the proteins cited; added tags and fusions are not shown. Lines headed by an entry give the natural chain unless they say otherwise; changes in a name come on top. A line that says so, or that is headed by a name, gives the form on record, which may keep a tag or linker. Residues count along the entry.
UniProt P02748, residues 22-559: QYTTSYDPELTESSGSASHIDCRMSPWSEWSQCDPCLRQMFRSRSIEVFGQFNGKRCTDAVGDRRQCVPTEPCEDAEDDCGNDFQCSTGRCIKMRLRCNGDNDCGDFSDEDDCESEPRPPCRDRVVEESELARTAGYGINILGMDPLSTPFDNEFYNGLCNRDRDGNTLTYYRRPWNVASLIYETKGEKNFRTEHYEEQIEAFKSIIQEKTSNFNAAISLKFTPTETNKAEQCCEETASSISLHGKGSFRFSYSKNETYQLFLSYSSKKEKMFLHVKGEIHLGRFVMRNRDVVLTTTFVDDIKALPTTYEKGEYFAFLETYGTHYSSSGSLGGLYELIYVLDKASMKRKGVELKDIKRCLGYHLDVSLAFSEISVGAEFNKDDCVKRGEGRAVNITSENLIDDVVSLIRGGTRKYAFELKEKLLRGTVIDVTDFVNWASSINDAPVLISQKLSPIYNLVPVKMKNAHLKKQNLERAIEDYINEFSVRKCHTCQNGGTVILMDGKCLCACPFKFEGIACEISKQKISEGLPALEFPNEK
complement regulator factor H (FH) (P08603, residues 19-1231): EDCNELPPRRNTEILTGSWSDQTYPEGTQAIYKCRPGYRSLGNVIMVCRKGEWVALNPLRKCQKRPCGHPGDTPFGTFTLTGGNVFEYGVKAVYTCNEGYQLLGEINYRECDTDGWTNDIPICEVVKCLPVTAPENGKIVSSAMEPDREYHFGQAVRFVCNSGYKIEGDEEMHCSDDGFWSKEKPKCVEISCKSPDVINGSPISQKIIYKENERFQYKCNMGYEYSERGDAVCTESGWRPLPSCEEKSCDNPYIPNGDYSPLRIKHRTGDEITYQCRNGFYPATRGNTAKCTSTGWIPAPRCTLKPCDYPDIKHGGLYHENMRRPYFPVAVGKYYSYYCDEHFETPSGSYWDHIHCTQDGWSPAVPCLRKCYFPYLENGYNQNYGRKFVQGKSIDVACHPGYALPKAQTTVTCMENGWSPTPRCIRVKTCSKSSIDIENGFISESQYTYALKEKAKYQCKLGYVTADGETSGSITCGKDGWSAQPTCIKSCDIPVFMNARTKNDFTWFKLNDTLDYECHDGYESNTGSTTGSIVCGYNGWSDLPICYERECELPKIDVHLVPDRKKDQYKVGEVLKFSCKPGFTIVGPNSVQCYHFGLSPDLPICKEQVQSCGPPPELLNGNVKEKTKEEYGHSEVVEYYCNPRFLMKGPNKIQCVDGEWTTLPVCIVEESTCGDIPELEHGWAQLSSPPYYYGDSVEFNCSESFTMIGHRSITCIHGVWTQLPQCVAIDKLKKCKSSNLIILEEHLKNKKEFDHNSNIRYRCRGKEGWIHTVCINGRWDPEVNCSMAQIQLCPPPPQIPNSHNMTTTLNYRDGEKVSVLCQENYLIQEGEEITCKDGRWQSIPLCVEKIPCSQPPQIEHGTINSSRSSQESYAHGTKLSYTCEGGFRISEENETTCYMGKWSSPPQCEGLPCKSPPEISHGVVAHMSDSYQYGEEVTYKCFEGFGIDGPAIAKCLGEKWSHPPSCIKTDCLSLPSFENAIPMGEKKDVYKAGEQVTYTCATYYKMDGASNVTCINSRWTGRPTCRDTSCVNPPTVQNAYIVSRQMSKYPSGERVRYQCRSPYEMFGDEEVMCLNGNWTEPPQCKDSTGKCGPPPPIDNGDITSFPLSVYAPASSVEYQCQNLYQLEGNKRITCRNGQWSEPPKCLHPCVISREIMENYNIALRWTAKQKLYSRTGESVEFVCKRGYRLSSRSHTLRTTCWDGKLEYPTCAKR
FH-like protein 1 (FHL-1) (P08603-2, form named): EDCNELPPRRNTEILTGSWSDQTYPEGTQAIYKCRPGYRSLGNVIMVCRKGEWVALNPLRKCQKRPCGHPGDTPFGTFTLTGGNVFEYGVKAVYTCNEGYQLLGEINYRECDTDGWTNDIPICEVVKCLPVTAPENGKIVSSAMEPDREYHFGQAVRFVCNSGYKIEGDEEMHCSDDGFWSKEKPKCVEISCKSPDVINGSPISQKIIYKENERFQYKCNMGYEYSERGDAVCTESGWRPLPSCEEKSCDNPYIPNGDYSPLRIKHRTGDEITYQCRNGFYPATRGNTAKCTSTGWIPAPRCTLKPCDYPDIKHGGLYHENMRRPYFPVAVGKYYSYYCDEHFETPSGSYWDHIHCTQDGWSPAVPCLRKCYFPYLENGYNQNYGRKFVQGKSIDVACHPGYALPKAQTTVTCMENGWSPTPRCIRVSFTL

What was measured:
[1] = biological target: His6-tagged CspA of B. mayonii MN14-1420 (CspA-like protein Bmayo_04535) (Borrelia mayonii MN14-1420); test: far-Western, overlay or dot blot; purified CspA of B. mayonii MN14-1420 separated by 10% Tris/tricine SDS-PAGE, on nitrocellulose strips, incubated with FH constructs of different CCP domains; polyclonal anti-FH antibody; both purified
[2] = biological target: His6-tagged CspA of B. mayonii MN14-1420 (CspA-like protein Bmayo_04535) (Borrelia mayonii MN14-1420); test: ELISA; His6-tagged proteins (5 μg/ml) coated on MaxiSorp plates in PBS at 4°C; FH or FHL-1 (5 μg/ml) added for 1 h at RT; detected with goat anti-FH antiserum; both purified
[3] = biological target: CspA of B. mayonii MN14-1420 produced by B. garinii G1 (transformant G1/pCspA_Bmayo) (Borrelia mayonii MN14-1420); test: serum adsorption assay; viable spirochetes (2 × 10^9) in 750 μl NHS-EDTA for 1 h at RT; washed; bound proteins eluted with 0.1 M glycine-HCl pH 2.0; Western blot with anti-FH
[4] = biological target: CspA of B. mayonii MN14-1420 produced by B. garinii G1 (transformant G1/pCspA_Bmayo) (Borrelia mayonii MN14-1420); test: far-Western, overlay or dot blot; borrelial cell lysates separated by 10% Tris/tricine SDS-PAGE, on nitrocellulose, incubated with NHS as source of FH; anti-FH antiserum
[5] = biological target: His6-tagged CspA of B. mayonii MN14-1420 (CspA-like protein Bmayo_04535) (Borrelia mayonii MN14-1420); test: pull-down; His6-tagged protein (40 μg) on magnetic beads (Dynabeads) incubated with 500 μl NHS-EDTA for 1 h on ice; elution with 100 mM glycine-HCl pH 2.0; silver staining and Western blot with anti-FH; only the target purified
[6] = biological target: CspA of B. mayonii MN14-1420 produced by B. garinii G1 (transformant G1/pCspA_Bmayo) (Borrelia mayonii MN14-1420); test: ELISA; spirochetes (2 × 10^7 cells in 100 μl PBS) immobilised on MaxiSorp plates at 4°C overnight; purified FH; anti-FH antiserum; only the binder purified
complement component C9 = complement component C9 (UniProt P02748); test: C9 polymerisation assay (SDS-PAGE, silver staining); C9 (3 μg) incubated with 0.25–10 μg of recombinant protein or BSA, then 50 μM ZnCl2 to induce auto-polymerisation; monomeric and SDS-resistant polymeric C9 on Tris/Tricine SDS gels; both purified

Row | Substance | binding [1] | further results
1 | FH-like protein 1 (FHL-1) (from UniProt P08603-2 19-449) | binds | binding [2]: binds
2 | complement regulator factor H (FH) (from UniProt P08603 19-1231) |  | binding [3]: binds; binding [4]: binds; binding [5]: binds; binding [6]: binds; binding [2]: binds
3 | His6-tagged CspA of B. mayonii MN14-1420 (CspA-like protein Bmayo_04535) (from UniProt A0AAC9KV93) |  | binding (complement component C9): binds
4 | FH construct FH19-20 (from UniProt P08603) (domain or fragment) | binds weakly | 
5 | FH construct FH1-5 (from UniProt P08603) (domain or fragment) | binds | 
6 | FH construct FH1-6 (from UniProt P08603) (domain or fragment) | binds | 
7 | FH construct FH15-19 (from UniProt P08603) (domain or fragment) | binds weakly | 
8 | FH construct FH15-20 (from UniProt P08603) (domain or fragment) | binds | 
9 | FH construct FH8-20 (from UniProt P08603) (domain or fragment) | binds weakly | 
